Assay results

Data taken from PubChem BioAssay AID1224904, deposited by Broad Institute (2016).

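Selective DUX4 reporter inhibition in doxycycline-induced 293T-iDUX4 cells, scored as Gaussia percent activity minus Italica percent activity, after a 24-hour treatment.
The test concentration is not given here.
Percent difference between the Gaussia and Italica channels; more negative values mean more selective suppression of the DUX4 reporter, and higher values mean less activity.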

Values are in %.
How 0% and 100% were set is not given here.
Common to all entries: measured here: selective DUX4 reporter inhibition.
Part of the compounds only, not a random draw; the main read-out is not listed here.

structure | Gaussia minus Italica difference (%)
O=C(C[C@@H]1CC[C@@H]2[C@H](COC[C@H](O)CN2Cc2ccc(Oc3ccccc3)cc2)O1)N1CCCCC1 | 0.7738
CN(C)CC(=O)Nc1ccc2c(c1)[C@H]1C[C@@H](CC(=O)NCc3ccc(-c4ccccc4)cc3)O[C@@H](CO)[C@H]1O2 | -0.5622
COc1ccc2c3c([nH]c2c1)[C@@H](CO)N(Cc1ccc(Cl)cc1)CC31CCN(Cc2ccccc2)CC1 | 23.2
O=S(=O)(c1ccccc1)N1CCCCN2[C@H](CO)[C@H](c3ccc(-c4ccccc4F)cc3)[C@@H]2C1 | -5.607
O=C(C1CCCCC1)N1[C@@H](CO)[C@@H](c2ccccc2)C12CN(Cc1ccc(F)cc1)C2 | -11.36
COc1ccccc1C#Cc1ccc2c(c1)[C@@H]1[C@@H](CCN1C(=O)Cc1ccccc1)[C@@H](CO)N2 | -24.16
C[C@H](CO)N1C[C@H](C)[C@@H](CN(C)S(=O)(=O)c2ccc(Cl)cc2)OCc2ccccc2-c2c(n(C)c3ccccc23)C1=O | -1.072
O=C(C[C@@H]1C[C@H]2c3cc(NC(=O)C4CCOCC4)ccc3O[C@H]2[C@H](CO)O1)NCc1ccc(Oc2ccccc2)cc1 | -19.05
CO[C@H]1CN(C)C(=O)c2ccc(NC(=O)C3CC3)cc2OC[C@@H](C)N(CCc2ccccc2)C[C@@H]1C | -12.35
O=C(C[C@H]1C[C@H]2c3cc(NS(=O)(=O)c4ccc(F)cc4)ccc3O[C@H]2[C@H](CO)O1)N1CCCCC1 | -2.052
COc1cccc(NC(=O)N[C@H]2C=C[C@H](CC(=O)Nc3ccc(-c4ccccc4)cc3)O[C@@H]2CO)c1 | -3.902
COc1cccc(-c2ccc3c(c2)[C@H]2[C@H](CCN2C(=O)c2ccc(F)cc2)[C@@H](CO)N3)c1 | 12.39
CN(C)C(=O)c1cccc(-c2ccc3c(c2)[C@@H]2[C@@H](CCN2C(=O)c2ccc4c(c2)OCO4)[C@@H](CO)N3)c1 | 0.8782
O=C(Nc1ccccc1F)N1CC(=O)N2[C@@H](CO)[C@H](c3ccc(C#CC4CC4)cc3)[C@@H]2C1 | -14.73
COc1ccc2c3c(n(C)c2c1)[C@H](CO)N(C(=O)Nc1ccc(F)cc1)CC31CN(C(=O)c2cccnc2)C1 | -15.09
C[C@H]1CCCCO[C@H](CN(C)C(=O)NC2CCCCC2)[C@@H](C)CN([C@@H](C)CO)C(=O)c2cc(NC(=O)Cc3ccccc3)ccc2O1 | 5.175
C[C@@H]1CN([C@@H](C)CO)C(=O)c2ccccc2-c2ccccc2CO[C@@H]1CN(C)S(=O)(=O)c1cccc(F)c1 | -4.841
CO[C@H]1CN(C)C(=O)c2ccc(NC(=O)Nc3ccccc3F)cc2OC[C@H](C)N(C(C)=O)C[C@@H]1C | -17.2
O=C(Cc1ccccc1)N1CCCCN2[C@@H](CO)[C@H](c3ccc(C#CC4(O)CCCC4)cc3)[C@@H]2C1 | -11.72
O=C(NCc1ccccc1)[C@@H]1[C@@H](CO)[C@@H]2Cn3c(ccc(/C=C/c4ccccc4)c3=O)[C@H]1N2CC1CC1 | -6.406
COc1ccccc1C#Cc1ccc2c(c1)[C@@H]1[C@@H](CCN1S(=O)(=O)c1ccc(F)cc1)[C@@H](CO)N2 | -7.203
O=C(c1ccc(F)cc1)N1CC(=O)N2[C@H](CO)[C@H](c3ccc(C#CC4CCCCC4)cc3)[C@H]2C1 | -7.657
Cc1ccc(S(=O)(=O)N[C@@H]2C=C[C@@H](CC(=O)NCc3ccc(Cl)c(Cl)c3)O[C@H]2CO)cc1 | -4.86
COc1ccccc1NC(=O)N1CCCCN2[C@@H](CO)[C@@H](c3ccc(-c4cccc(C#N)c4)cc3)[C@@H]2C1 | 4.604
O=C(c1cccc(F)c1)N1CCCCN2[C@@H](CO)[C@H](c3ccc(C#CC4(O)CCCC4)cc3)[C@@H]2C1 | -4.537
O=C(C1CCOCC1)N1CC(=O)N2[C@H](C1)[C@H](c1ccc(C#Cc3cccc(F)c3)cc1)[C@@H]2CO | -5.458
Cc1ccc(-c2ccc([C@H]3[C@@H](CO)N4C(=O)CN(C(=O)Nc5ccc(F)cc5)C[C@H]34)cc2)cc1 | 2.233
O=C(C[C@@H]1C=C[C@H](NC(=O)c2ccncc2)[C@H](CO)O1)NCC1CC1 | -14.06
O=C(C[C@H]1CC[C@@H]2[C@H](COC[C@@H](O)CN2Cc2cccc(C(F)(F)F)c2)O1)NCc1ccc(Cl)cc1 | -6.686
OC[C@@H]1[C@H](c2ccccc2)C2(CN(Cc3nccs3)C2)N1CCC(F)(F)F | -3.225
Cc1cccc(S(=O)(=O)N(C)C[C@@H]2OCc3ccccc3-c3ccccc3C(=O)N([C@@H](C)CO)C[C@H]2C)c1 | -21.74
O=C(C1CCC1)N1CC[C@@H]2[C@H]1c1cc(-c3cccc(F)c3)ccc1N[C@@H]2CO | 8.174
Cc1ccccc1-c1ccc(C2[C@@H]3CN(Cc4cocn4)C[C@H]2N3)cc1 (stereo partly shown) | -5.015
CCC(=O)N1CC2(CCN(Cc3ccc(Cl)cc3)CC2)c2c(n(C)c3cc(OC)ccc23)[C@H]1CO | 16.73
COc1ccccc1NC(=O)N1CCCCN2[C@H](CO)[C@H](c3ccc(-c4cccc(C#N)c4)cc3)[C@H]2C1 | 3.308
CN(C)C(=O)c1cccc(-c2ccc3c(c2)[C@@H]2[C@@H](CCN2C(=O)c2ccc4c(c2)OCO4)[C@H](CO)N3)c1 | 4.394
O=C(C[C@@H]1CC[C@H]2[C@@H](COC[C@@H](O)CN2Cc2ccc3c(c2)OCO3)O1)Nc1ccc(-c2ccccc2)cc1 | 8.607
CO[C@@H]1CN(C)C(=O)c2cc(NC(=O)c3nc4ccccc4s3)ccc2OC[C@H](C)NC[C@@H]1C | 1.029
O=C(Cc1ccncc1)N1CCCCN2[C@H](C1)[C@@H](c1ccc(C#Cc3ccccc3F)cc1)[C@@H]2CO | -23.92
Cc1ccc(S(=O)(=O)Nc2ccc3c(c2)C(=O)N([C@@H](C)CO)C[C@H](C)[C@H](CN(C)C(=O)NC2CCCCC2)OCCCC[C@H](C)O3)cc1 | 18.18
O=C1CN(S(=O)(=O)Cc2ccccc2)C[C@@H]2[C@H](c3ccc(C#Cc4ccccc4)cc3)[C@@H](CO)N12 | -2.923
O=C(C[C@H]1C[C@@H]2c3cc(NC(=O)Nc4ccc(C(F)(F)F)cc4)ccc3O[C@@H]2[C@@H](CO)O1)NCc1ccc(Cl)cc1 | -19.82
CCCC#Cc1ccc([C@@H]2[C@H](CO)N3C(=O)CN(C(=O)NC4CCCC4)C[C@@H]23)cc1 | -16.27
C[C@@H](NC(=O)C[C@@H]1CC[C@H]2[C@@H](COC[C@H](O)CN2Cc2ccc(C(F)(F)F)cc2)O1)c1ccccc1 | -17.42
Cc1ccc(S(=O)(=O)N2C[C@@H](O)COC[C@H]3O[C@@H](CC(=O)NCc4ccc(Cl)c(Cl)c4)CC[C@@H]32)cc1 | 3.431
COc1cccc(S(=O)(=O)Nc2ccc3c(c2)[C@H]2C[C@H](CC(=O)NCCc4ccccc4)O[C@H](CO)[C@H]2O3)c1 | -8.718
C[C@H]1CN([C@@H](C)CO)C(=O)c2c(c3ccccc3n2C)-c2ccccc2CO[C@H]1CN(C)Cc1ccc(Oc2ccccc2)cc1 | -10.92
Cc1ccc(OC(=O)N(C)C[C@H]2OCc3ccccc3-c3c(n(C)c4ccccc34)C(=O)N([C@@H](C)CO)C[C@@H]2C)cc1 | -5.379
COCC(=O)N1CC[C@@H]2[C@H]1c1cc(-c3ccccc3)ccc1N(C)[C@@H]2CO | -6.244
O=C(C[C@@H]1C[C@@H]2c3cc(NC(=O)Nc4ccc(C(F)(F)F)cc4)ccc3O[C@@H]2[C@@H](CO)O1)NCc1ccc(Cl)cc1 | -8.961
O=C(C[C@H]1CC[C@H]2[C@@H](COC[C@@H](O)CN2S(=O)(=O)c2ccc(Oc3ccccc3)cc2)O1)Nc1ccccc1 | -17.57
COc1cccc(S(=O)(=O)Nc2ccc3c(c2)C(=O)N(C)C[C@H](OC)[C@H](C)CN(Cc2ccccc2F)[C@@H](C)CO3)c1 | -4.528
Cn1cnc(S(=O)(=O)N2C[C@@H]3N[C@H](C2)C3c2ccc(/C=C/c3ccccc3)cc2)c1 (stereo partly shown) | -18.01
C[C@@H]1CN([C@H](C)CO)C(=O)c2c(c3ccccc3n2C)-c2ccccc2CO[C@H]1CN(C)S(=O)(=O)c1ccc(Cl)cc1 | -3.833
COC(=O)C[C@@H]1C[C@@H]2c3cc(NC(=O)Nc4ccc(C(F)(F)F)cc4)ccc3O[C@@H]2[C@@H](CO)O1 | -4.377
CN1c2ccc(-c3ccc(F)cc3)cc2[C@H]2[C@H](CCN2S(=O)(=O)c2cccc(F)c2)[C@@H]1CO | -7.885
COc1ccc2c3c([nH]c2c1)[C@@H](CO)N(CC1CC1)CC31CN(C(=O)c2ccccc2F)C1 | -8.719
C[C@@H]1CN([C@H](C)CO)C(=O)c2c(c3ccccc3n2C)-c2ccccc2CO[C@H]1CN(C)Cc1ccc(F)cc1 | -23.51